Measurements taken from patent US11617740B2, “Chemical inhibitors of Mycobacterium tuberculosis DosRST signaling and persistence” (priority 2017, dated 2023).
Some results were stated once for a whole list of compounds, not compound by compound.

Test system: DosRST pathway, CDC1551 (hspX′::GFP) reporter strain
Type: cell-based
Settings: modification of one urea -NH

O=C(Cc1ccc(Cl)cc1)Nc1ccno1 [MSU-39449]
reduced activity: 0.5-1 log

CN(C(=O)Nc1ccno1)c1ccc(Cl)cc1 [MSU-39451, 1-(4-chlorophenyl)-1-methyl-3-(1,2-oxazol-5-yl)urea]
reduced activity: 0.5-1 log
